These are yes or no findings as the source states them, for the method shown. Binding seen in cells or lysates may run through a third protein. Here binding means that the protein was enriched with, or labelled near, the bait; the list need not be complete. Blank lines part the entries; values can stand above or below the molecule they belong to.
Tests used:
V5BirA*-Centrin-2 = V5BirA*-Centrin-2 (UniProt P41208); assay: proximity labelling
V5BirA*-POC5 = target: T1, V5BirA*-POC5 (UniProt Q8NA72); assay: proximity labelling
T1 sequence: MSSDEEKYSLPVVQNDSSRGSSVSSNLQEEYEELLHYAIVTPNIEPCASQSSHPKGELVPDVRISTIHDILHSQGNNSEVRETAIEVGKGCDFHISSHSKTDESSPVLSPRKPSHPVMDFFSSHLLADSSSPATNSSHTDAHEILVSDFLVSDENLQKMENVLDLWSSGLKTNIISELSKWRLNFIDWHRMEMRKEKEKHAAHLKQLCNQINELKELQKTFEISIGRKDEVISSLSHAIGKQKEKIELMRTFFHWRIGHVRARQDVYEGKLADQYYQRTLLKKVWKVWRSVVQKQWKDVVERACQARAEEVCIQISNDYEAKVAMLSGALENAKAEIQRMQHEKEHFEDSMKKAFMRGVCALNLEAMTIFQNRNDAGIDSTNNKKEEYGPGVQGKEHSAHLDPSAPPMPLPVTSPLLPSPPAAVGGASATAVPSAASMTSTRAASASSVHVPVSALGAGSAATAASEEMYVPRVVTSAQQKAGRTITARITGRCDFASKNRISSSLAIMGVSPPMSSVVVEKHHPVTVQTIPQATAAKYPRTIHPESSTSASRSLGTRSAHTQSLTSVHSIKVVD

The chains behind the UniProt entries cited, without tags or fusion partners.
UniProt P41208: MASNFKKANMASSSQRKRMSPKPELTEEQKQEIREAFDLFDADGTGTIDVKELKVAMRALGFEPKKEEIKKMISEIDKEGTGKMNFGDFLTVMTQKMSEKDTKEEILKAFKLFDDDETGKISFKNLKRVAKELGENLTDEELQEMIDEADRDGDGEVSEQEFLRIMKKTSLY
UniProt Q4AC94: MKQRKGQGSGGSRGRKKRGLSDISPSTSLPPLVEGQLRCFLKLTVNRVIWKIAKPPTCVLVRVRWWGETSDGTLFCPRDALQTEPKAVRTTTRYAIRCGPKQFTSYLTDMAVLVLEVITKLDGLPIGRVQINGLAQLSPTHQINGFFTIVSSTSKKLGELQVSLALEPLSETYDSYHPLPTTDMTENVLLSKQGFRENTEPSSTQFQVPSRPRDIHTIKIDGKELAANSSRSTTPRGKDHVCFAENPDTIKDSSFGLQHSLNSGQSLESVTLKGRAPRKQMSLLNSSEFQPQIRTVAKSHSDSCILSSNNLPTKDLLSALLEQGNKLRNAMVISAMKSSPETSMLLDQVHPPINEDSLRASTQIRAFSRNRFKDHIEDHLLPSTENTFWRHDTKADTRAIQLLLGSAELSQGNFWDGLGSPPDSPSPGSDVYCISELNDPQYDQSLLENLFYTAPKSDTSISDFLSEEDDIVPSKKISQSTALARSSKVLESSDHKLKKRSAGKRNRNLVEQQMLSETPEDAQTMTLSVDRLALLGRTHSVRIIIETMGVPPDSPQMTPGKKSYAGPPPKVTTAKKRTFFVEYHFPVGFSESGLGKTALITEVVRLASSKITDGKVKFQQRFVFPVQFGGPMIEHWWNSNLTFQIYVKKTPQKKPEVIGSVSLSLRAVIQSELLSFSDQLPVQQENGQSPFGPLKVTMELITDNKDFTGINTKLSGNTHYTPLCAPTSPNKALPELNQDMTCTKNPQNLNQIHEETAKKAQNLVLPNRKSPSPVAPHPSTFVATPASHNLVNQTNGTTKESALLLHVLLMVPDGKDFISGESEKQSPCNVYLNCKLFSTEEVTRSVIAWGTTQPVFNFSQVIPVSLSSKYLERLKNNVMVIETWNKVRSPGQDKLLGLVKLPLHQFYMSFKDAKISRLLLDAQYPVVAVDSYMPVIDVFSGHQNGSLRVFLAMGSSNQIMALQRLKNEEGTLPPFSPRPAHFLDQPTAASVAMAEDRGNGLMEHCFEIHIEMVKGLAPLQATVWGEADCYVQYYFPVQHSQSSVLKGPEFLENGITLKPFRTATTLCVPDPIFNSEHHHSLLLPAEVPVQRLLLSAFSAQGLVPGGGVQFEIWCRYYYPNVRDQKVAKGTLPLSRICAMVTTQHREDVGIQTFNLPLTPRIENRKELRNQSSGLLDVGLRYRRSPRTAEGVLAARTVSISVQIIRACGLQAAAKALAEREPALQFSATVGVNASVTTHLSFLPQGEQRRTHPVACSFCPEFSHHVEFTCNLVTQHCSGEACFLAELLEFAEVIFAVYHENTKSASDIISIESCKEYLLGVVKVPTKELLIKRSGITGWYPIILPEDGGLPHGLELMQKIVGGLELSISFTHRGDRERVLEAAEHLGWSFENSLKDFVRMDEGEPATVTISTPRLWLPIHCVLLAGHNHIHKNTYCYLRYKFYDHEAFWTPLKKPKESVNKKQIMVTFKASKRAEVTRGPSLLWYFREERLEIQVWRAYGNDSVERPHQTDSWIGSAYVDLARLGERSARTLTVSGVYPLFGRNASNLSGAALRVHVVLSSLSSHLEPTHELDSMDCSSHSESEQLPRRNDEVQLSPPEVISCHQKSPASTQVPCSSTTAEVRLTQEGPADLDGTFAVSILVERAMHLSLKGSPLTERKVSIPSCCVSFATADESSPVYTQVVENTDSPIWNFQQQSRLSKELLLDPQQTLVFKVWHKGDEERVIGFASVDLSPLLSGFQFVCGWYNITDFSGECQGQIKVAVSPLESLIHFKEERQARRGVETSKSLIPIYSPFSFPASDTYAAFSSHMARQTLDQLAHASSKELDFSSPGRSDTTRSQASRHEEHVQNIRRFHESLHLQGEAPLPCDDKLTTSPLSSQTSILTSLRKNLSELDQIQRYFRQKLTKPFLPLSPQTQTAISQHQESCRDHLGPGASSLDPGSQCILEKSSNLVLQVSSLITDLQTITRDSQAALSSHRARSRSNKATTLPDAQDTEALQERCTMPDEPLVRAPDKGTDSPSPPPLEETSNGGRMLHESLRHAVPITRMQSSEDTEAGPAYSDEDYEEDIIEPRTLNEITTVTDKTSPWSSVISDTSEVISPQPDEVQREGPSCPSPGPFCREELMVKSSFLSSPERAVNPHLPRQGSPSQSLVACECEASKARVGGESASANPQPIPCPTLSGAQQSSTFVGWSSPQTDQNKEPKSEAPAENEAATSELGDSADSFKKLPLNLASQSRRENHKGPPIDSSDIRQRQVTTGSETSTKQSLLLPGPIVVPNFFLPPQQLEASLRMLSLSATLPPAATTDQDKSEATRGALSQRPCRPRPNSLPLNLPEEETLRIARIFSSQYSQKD

Molecule: C2CD3 (endogenous) (from UniProt Q4AC94 1-2353)
binding (V5BirA*-Centrin-2): binds | binding (V5BirA*-POC5): binds

B1: FAM161A (endogenous) (protein, UniProt Q3B820 1-660)
chain: MATSHRVAKLVASSLQTPVNPITGARVAQYEREDPLKALAAAEAILEDEEEEKVAQPAGASADLNTSFSGVDEHAPISYEDFVNFPDIHHSNEEYFKKVEELKAAHIETMAKLEKMYQDKLHLKEVQPVVIREDSLSDSSRSVSEKNSYHPVSLMTSFSEPDLGQSSSLYVSSSEEELPNLEKEYPRKNRMMTYAKELINNMWTDFCVEDYIRCKDTGFHAAEKRRKKRKEWVPTITVPEPFQMMIREQKKKEESMKSKSDIEMVHKALKKQEEDPEYKKKFRANPVPASVFLPLYHDLVKQKEERRRSLKEKSKEALLASQKPFKFIAREEQKRAAREKQLRDFLKYKKKTNRFKARPIPRSTYGSTTNDKLKEEELYRNLRTQLRAQEHLQNSSPLPCRSACGCRNPRCPEQAVKLKCKHKVRCPTPDFEDLPERYQKHLSEHKSPKLLTVCKPFDLHASPHASIKREKILADIEADEENLKETRWPYLSPRRKSPVRCAGVNPVPCNCNPPVPTVSSRGREQAVRKSEKERMREYQRELEEREEKLKKRPLLFERVAQKNARMAAEKHYSNTLKALGISDEFVSKKGQSGKVLEYFNNQETKSVTEDKESFNEEEKIEERENGEENYFIDTNSQDSYKEKDEANEESEEEKSVEESH
binding (V5BirA*-Centrin-2): binds | binding (V5BirA*-POC5): binds

B3: CCDC15 (endogenous) (protein, UniProt Q0P6D6 1-951)
chain: MLGSMARKKPRNTSRLPLALNPLKSKDVLAVLAERNEAIVPVGAWVEPASPGSSEIPAYTSAYLIEEELKEQLRKKQEALKHFQKQVKYRVNQQIRLRKKQQLQKSYERAQKEGSIAMQSSATHLTSKRTSVFPNNLNVAIGSSRLPPSLMPGDGIEDEENQNELFQQQAQALSETMKQARHRLASFKTVIKKKGSVFPDDGRKSFLTREEVLSRKPASTGINTGIRGELPIKVHQGLLAAVPYQNYMENQELDYEEPDYEESSSLVTDEKGKEDLFGRGQQDQQAIHSEDKNKPFSRVQKVKFKNPLFVLMEEEEQKQLHFEGLQDILPEAQDYFLEAQGDLLETQGDLTGIQSVKPDTQAVEMKVQVTEPEGQAIEPEGQPIKTETQGIMLKAQSIELEEGSIVLKTQDFLPTNQALLTKNQDVLLKDHCVLPKDQSILLKYQDQDFLPRDQHVLHKDQDILPKYQDQNFLPKDQNFLSRDQHVLPKDQDILPKYQDQNFLPKDQNFLSRDQHVLPKDQNILPKYQGQDFLPKDQDFLSRDQHVLPKDWNILPKCQDQDFLPRDQGVLPKDQNILPICQDQDFLPRDQGYLPKDQNILPICQDRDFLPRDLHVLSNDQNILPKCQDQDFLPKYQKVHFKEPYSDMTDEKGREDFSLADYQCLPPKSQDQDDIKNQQPASFMREERVREELPLDYHQYVVPKIQDQDSPREQNKHIKLPSSFEKWEIARGNTPGVPLAYDRYQSGLSTEFQAPLAFQSDVDKEEDKKERQKQYLRHRRLFMDIEREQVKEQQRQKEQKKKIEKIKKKREQECYAAEQRILRMNFHEDPYSGEKLSEILAQLQLQEIKGTREKQQREKEYLRYVEALRAQIQEKMQLYNITLPPLCCCGPDFWDAHPDTCANNCIFYKNHRAYTRALHSFINSCDVPGGNSTLRVAIHNFASAHRRTLKNL
binding (V5BirA*-Centrin-2): binds | binding (V5BirA*-POC5): binds

Continued, values first:

binding (V5BirA*-Centrin-2): binds | binding (V5BirA*-POC5): binds
B2: HAUS6 (endogenous) (protein, UniProt Q7Z4H7 1-955)
chain: MSSASVTAFEKEHLWMYLQALGFEPGPATIACGKIVSHTHLGVNMFDKLNRDAFHIISYFLFQVLDQSLTKEVFKFCWPPFDQKSDTEFRKHCCEWIKRISGECGSSFPQVVGSLFLSPGGPKFIHLMYHFARFVAMKYIKSNSKNSSHHFVETFNIKPQDLHKCIARCHFARSRFLQILQRQDCVTQKYQENAQLSVKQVRNLRSECIGLENQIKKMEPYDDHSNMEEKIQKVRSLWASVNETLMFLEKEREVVSSVLSLVNQYALDGTNVAINIPRLLLDKIEKQMFQLHIGNVYEAGKLNLLTVIQLLNEVLKVMKYERCQADQARLTVDLHYLEKETKFQKERLSDLKHMRYRIKDDLTTIRHSVVEKQGEWHKKWKEFLGLSPFSLIKGWTPSVDLLPPMSPLSFDPASEEVYAKSILCQYPASLPDAHKQHNQENGCRGDSDTLGALHDLANSPASFLSQSVSSSDRNSVTVLEKDTKMGTPKEKNEAISKKIPEFEVENSPLSDVAKNTESSAFGGSLPAKKSDPFQKEQDHLVEEVARAVLSDSPQLSEGKEIKLEELIDSLGSNPFLTRNQIPRTPENLITEIRSSWRKAIEMEENRTKEPIQMDAEHREVLPESLPVLHNQREFSMADFLLETTVSDFGQSHLTEEKVISDCECVPQKHVLTSHIDEPPTQNQSDLLNKKVICKQDLECLAFTKLSETSRMETFSPAVGNRIDVMGGSEEEFMKILDHLEVSCNKPSTNKTMLWNSFQISSGISSKSFKDNDFGILHETLPEEVGHLSFNSSSSSEANFKLEPNSPMHGGTLLEDVVGGRQTTPESDFNLQALRSRYEALKKSLSKKREESYLSNSQTPERHKPELSPTPQNVQTDDTLNFLDTCDLHTEHIKPSLRTSIGERKRSLSPLIKFSPVEQRLRTTIACSLGELPNLKEEDILNKSLDAKEPPSDLTR

binding (V5BirA*-Centrin-2): binds | binding (V5BirA*-POC5): binds
B4: CEP135 (endogenous) (protein, UniProt Q66GS9 1-1140)
chain: MTTAVERKYINIRKRLDQLGYRQTLTVECLPLVEKLFSDLVHTTESLRQSKLSAVKAEKESANFDFVLEPYKLENARLSRENNELYLELMKLREHSDQHVKELKTSLKKCARETADLKFLNNQYAHKLKLLEKESKAKNERIQQLQEKNLHAVVQTPGGKKRSIAFRRQRMQIDEPVPPSEVSSYPVPQPDDPYIADLLQVADNRIQELQQEVHQLQEKLAMMESGVRDYSKQIELREREIERLSVALDGGRSPDVLSLESRNKTNEKLIAHLNIQVDFLQQANKDLEKRIRELMETKETVTSEVVNLSNKNEKLCQELTEIDQLAQQLERHKEEVLETADKELGEAKKEIKRKLSEMQDLEETMAKLQLELNLCQKEKERLSDELLVKSDLETVVHQLEQEKQRLSKKVESFAVTERQLTLEVERMRLEHGIKRRDRSPSRLDTFLKGIEEERDYYKKELERLQHIIQRRSCSTSYSAREKSSIFRTPEKGDYNSEIHQITRERDELQRMLERFEKYMEDIQSNVKLLTAERDKLSVLYNEAQEELSALRKESTQTTAPHNIVSLMEKEKELALSDLRRIMAEKEALREKLEHIEEVSLFGKSELEKTIEHLTCVNHQLESEKYELKSKVLIMKETIESLENKLKVQAQKFSHVAGDSSHQKTEVNSLRIVNEQLQRSVDDYQHRLSIKRGELESAQAQIKILEEKIDELNLKMTSQDEEAHVMKKTIGVIDKEKDFLQETVDEKTEKIANLQENLANKEKAVAQMKIMISECESSVNQLKETLVNRDREINSLRRQLDAAHKELDEVGRSREIAFKENRRLQDDLATMARENQEISLELEAAVQEKEEMKSRVHKYITEVSRWESLMAAKEKENQDLLDRFQMLHNRAEDWEVKAHQAEGESSSVRLELLSIDTERRHLRERVELLEKEIQEHINAHHAYESQISSMAKAMSRLEEELRHQEDEKATVLNDLSSLRELCIKLDSGKDIMTQQLNSKNLEFERVVVELENVKSESDLLKKQLSNERHTVKNLESLLATNRDKEFHSHLTSHEKDTEIQLLKEKLTLSESKLTSQSRENTMLRAKVAQLQTDYDALKRQISTERYERERAIQEMRRHGLATPPLSSTLRSPSHSPEHRNV

— doi:10.1101/2023.02.16.528810
